These are yes or no findings as the source states them, for the method shown. A result given as binding can be weak or reduced; the word gives no strength. Where a sequence is shown, tags or fusion partners need not be part of it. For part of these data: Binding seen in cells or lysates may run through a third protein.
What was measured:
[1] = molecular target: T1, OR-Like (ORL), split-YFP fusion for BiFC (Arabidopsis thaliana) (UniProt Q8VYD8); assay: split reporter
T1 sequence: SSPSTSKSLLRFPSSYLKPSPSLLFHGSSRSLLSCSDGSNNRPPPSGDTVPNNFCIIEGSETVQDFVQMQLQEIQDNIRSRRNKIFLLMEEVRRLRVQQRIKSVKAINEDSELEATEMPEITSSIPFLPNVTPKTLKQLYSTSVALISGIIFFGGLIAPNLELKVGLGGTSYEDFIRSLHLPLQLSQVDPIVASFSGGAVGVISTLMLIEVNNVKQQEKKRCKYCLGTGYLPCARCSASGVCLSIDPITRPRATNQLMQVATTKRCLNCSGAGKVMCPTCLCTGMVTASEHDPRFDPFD

[2] = molecular target: T2, ORANGE (OR), split-YFP fusion for BiFC (Arabidopsis thaliana) (UniProt Q9FKF4); assay: split reporter
T2 sequence: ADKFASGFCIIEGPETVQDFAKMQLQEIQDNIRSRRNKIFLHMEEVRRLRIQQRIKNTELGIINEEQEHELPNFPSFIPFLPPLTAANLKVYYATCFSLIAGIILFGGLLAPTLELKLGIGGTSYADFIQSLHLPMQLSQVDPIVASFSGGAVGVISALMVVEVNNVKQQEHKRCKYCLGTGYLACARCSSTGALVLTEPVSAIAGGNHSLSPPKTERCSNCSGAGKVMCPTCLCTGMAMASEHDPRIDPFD

[3] = molecular target: T3, OR-Like (ORL), Cub fusion for split-ubiquitin Y2H (Arabidopsis thaliana) (UniProt Q8VYD8); assay: two-hybrid
T3 sequence: T1 sequence

magnesium chelatase subunit I (CHLI), split-YFP fusion for BiFC (Arabidopsis thaliana)
binding [1]: binds | binding [2]: binds

magnesium chelatase subunit I (CHLI), Nub fusion for split-ubiquitin Y2H (Arabidopsis thaliana)
binding [3]: binds

Reference: doi:10.1101/2022.02.08.479616
